Assay results published in PubChem BioAssay (NCATS).
Inconclusive results, whose numbers are uncertain, are shown with a selection of clear calls. A potency beside an inconclusive call is a rough fit, not a confirmed value. Activity calls are given as the source filed them. Calls follow the shape of the dose curve; as a rule, active = well fitted curve in the direction sought with a large enough effect; inconclusive = small, poorly fitted or top-dose-only effect, or another doubt; inactive = no such curve, though single readings can be large; an effect the other way counts as inactive or inconclusive.

What was measured:
[1] = Quantitative High-Throughput drug screen in 47 multiple myeloma cell lines against the NCATS MIPE library collection: KMS20_JCRB cell viability assay (AID 1918973); settings: CellTiter-Glo ATP, 48 h; viability (% of DMSO): at 45.8 µM (top of the series); also: nearly all actives have a fitted effect of over 45% in size
How it was run: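 CellTiter-Glo luminescence (ATP) after 48 h compound exposure, 37C/5% CO2; 500 cells/well; MIPE 4.0 approved/investigational drugs pinned in; DMSO = 100%, media only = 0% viability.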

[2] = Quantitative High-Throughput drug screen in 47 multiple myeloma cell lines against the NCATS MIPE library collection: KMS26_JCRB cell viability assay (AID 1918975); settings: KMS26 myeloma cells viability, CellTiter-Glo ATP, 48 h; viability (% of DMSO): at 45.8 µM (top of the series); also: nearly all actives have a fitted effect of over 45% in size
How it was run: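 We plated 500 myeloma cells per well, pinned in MIPE 4.0 compounds, and incubated for 48 hours at 37C. ATP was then quantified with CellTiter-Glo, with DMSO and media-only wells defining 100% and 0%.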

[3] = Quantitative High-Throughput drug screen in 47 multiple myeloma cell lines against the NCATS MIPE library collection: MOLP8_DSMZ cell viability assay (AID 1918977); settings: MOLP8 myeloma viability, CellTiter-Glo ATP luminescence, 48 h; viability (% of control): at 45.8 µM (top of the series); also: nearly all actives have a fitted effect of over 45% in size
How it was run: (§1)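 Inhibition of viability over 48 h was scored by ATP content (CellTiter-Glo) in 500-cell wells. Zero and full viability were defined by media-only and DMSO-only wells.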

[4] = Quantitative High-Throughput drug screen in 47 multiple myeloma cell lines against the NCATS MIPE library collection: OCIMY1_PLB cell viability assay (AID 1918979); settings: OCI-MY1 myeloma viability, CellTiter-Glo ATP, 48 h; viability: at 45.8 µM (top of the series) unless noted; also: nearly all actives have a fitted effect of over 35% in size
How it was run: as §1

[5] = Quantitative High-Throughput drug screen in 47 multiple myeloma cell lines against the NCATS MIPE library collection: MM1R_ATCC cell viability assay (AID 1918981); also: nearly all actives have a fitted effect of over 35% in size
How it was run: as §1

[6] = Quantitative High-Throughput drug screen in 47 multiple myeloma cell lines against the NCATS MIPE library collection: LP1_DSMZ cell viability assay (AID 1918982); settings: LP1 myeloma viability, CellTiter-Glo ATP luminescence, 48 h; viability (% of control): at 45.8 µM (top of the series); also: nearly all actives have a fitted effect of over 35% in size
How it was run: as §1

[7] = Quantitative High-Throughput drug screen in 47 multiple myeloma cell lines against the NCATS MIPE library collection: KMS28PE_JCRB cell viability assay (AID 1918983); also: nearly all actives have a fitted effect of over 35% in size
How it was run: as §1

[8] = Quantitative High-Throughput drug screen in 47 multiple myeloma cell lines against the NCATS MIPE library collection: L363_DSMZ cell viability assay (AID 1918984); settings: L363 myeloma viability, CellTiter-Glo ATP luminescence, 48 h; viability (% of control): at 45.8 µM (top of the series); also: nearly all actives have a fitted effect of over 40% in size
How it was run: as §1

[9] = Quantitative High-Throughput drug screen in 47 multiple myeloma cell lines against the NCATS MIPE library collection: KMS34_JCRB cell viability assay (AID 1918985); settings: KMS34 myeloma viability, CellTiter-Glo ATP luminescence, 48 h; viability, percent of control: at 45.8 µM (top of the series); also: nearly all actives have a fitted effect of over 40% in size
How it was run: as §1

[10] = Quantitative High-Throughput drug screen in 47 multiple myeloma cell lines against the NCATS MIPE library collection: OCIMY5_PLB cell viability assay (AID 1918988); settings: OCI-MY5 myeloma viability, ATP luminescence, 48 h; viability, % of control: at 45.8 µM (top of the series); also: nearly all actives have a fitted effect of over 65% in size;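 as to viability, % of control: 100% = DMSO-treated wells and 0% = wells with media alone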
How it was run: as §1

[11] = Quantitative High-Throughput drug screen in 47 multiple myeloma cell lines against the NCATS MIPE library collection: XG1_PLB cell viability assay (AID 1919866); settings: CellTiter-Glo ATP, 48 h; viability: at 45.8 µM (top of the series); also: nearly all actives have a fitted effect of over 35% in size
How it was run: as §1

[12] = Quantitative High-Throughput drug screen in 47 multiple myeloma cell lines against the NCATS MIPE library collection: NCIH929_DSMZ cell viability assay (AID 1918978); also: nearly all actives have a fitted effect of over 35% in size
How it was run: as §1

[13] = Quantitative High-Throughput drug screen in 47 multiple myeloma cell lines against the NCATS MIPE library collection: MM1S_ATCC cell viability assay (AID 1918980); also: nearly all actives have a fitted effect of over 45% in size
How it was run: as §1

[14] = Quantitative High-Throughput drug screen in 47 multiple myeloma cell lines against the NCATS MIPE library collection: OCIMY7_PLB cell viability assay (AID 1918987); settings: OCI-MY7 myeloma viability, CellTiter-Glo ATP, 48 h; viability (% of DMSO): at 45.8 µM (top of the series); also: nearly all actives have a fitted effect of over 65% in size
How it was run: as §1

[15] = Quantitative High-Throughput drug screen in 47 multiple myeloma cell lines against the NCATS MIPE library collection: OPM1_PLB cell viability assay (AID 1918989); also: nearly all actives have a fitted effect of over 40% in size
How it was run: as §1

[16] = Quantitative High-Throughput drug screen in 47 multiple myeloma cell lines against the NCATS MIPE library collection: U266_ATCC cell viability assay (AID 1919864); settings: U266 myeloma viability, CellTiter-Glo ATP luminescence, 48 h; viability (% of DMSO control): at 45.8 µM (top of the series); also: nearly all actives have a fitted effect of over 35% in size
How it was run: as §1

[17] = Quantitative High-Throughput drug screen in 47 multiple myeloma cell lines against the NCATS MIPE library collection: XG6_PLB cell viability assay (AID 1919865); settings: XG6 myeloma viability, CellTiter-Glo ATP luminescence, 48 h; viability (% of control): at 45.8 µM (top of the series); also: nearly all actives have a fitted effect of over 40% in size
How it was run: as §1

[18] = Quantitative High-Throughput drug screen in 47 multiple myeloma cell lines against the NCATS MIPE library collection: SKMM1_PLB cell viability assay (AID 1919863); settings: SKMM1 myeloma viability, CellTiter-Glo ATP, 48 h; viability: active compounds read low; also: nearly all actives have a fitted effect of over 35% in size
How it was run: as §1

[19] = Quantitative High-Throughput drug screen in 47 multiple myeloma cell lines against the NCATS MIPE library collection: MMM1_PLB cell viability assay (AID 1918976); also: nearly all actives have a fitted effect of over 35% in size
How it was run: as §1
Potency is read from the fitted curve at half-maximal effect.

CCCCN1CCC(CNC(=O)c2c3n(c4ccccc24)CCCO3)CC1
inconclusive: Potency [2] 26.4 µM [cytotoxic, single point] | Potency [3] 0.187 µM [rising, full curve, poor fit] | Potency [4] 20.9 µM [cytotoxic, partial curve] | Potency [5] 26.4 µM [cytotoxic, single point] | Potency [6] 23.5 µM [cytotoxic, partial curve, poor fit] | Potency [8] 11.8 µM [cytotoxic, partial curve, poor fit] | Potency [9] 37.2 µM [cytotoxic, single point]
active: Potency [1] 13.2 µM | Potency [7] 23.5 µM | Potency [10] 3.32 µM | Potency [11] 0.743 µM

CC(C)[N+]1(C)[C@@H]2CC[C@H]1CC(OC(=O)C(CO)c1ccccc1)C2 (stereo partly drawn)
inactive: Potency [2] | Potency [4] | Potency [13] | Potency [16] | Potency [17]
inconclusive: Potency [1] 4.69 µM [cytotoxic, partial curve, poor fit] | Potency [12] 37.2 µM [cytotoxic, single point] | Potency [14] 16.6 µM [cytotoxic, partial curve, poor fit] | Potency [15] 37.2 µM [cytotoxic, single point] | Potency [11] 18.7 µM [cytotoxic, single point]

O=C1C(CCC(O)c2ccc(F)cc2)C(c2ccc(O)cc2)N1c1ccc(F)cc1 (stereo not drawn)
inactive: Potency [2] | Potency [3] | Potency [4] | Potency [8] | Potency [9] | Potency [14] | viability [18] 99.3% | Potency [11]
inconclusive: Potency [1] 13.2 µM [cytotoxic, partial curve, poor fit] | Potency [13] 20.9 µM [cytotoxic, single point] | Potency [10] 0.0026 µM [cytotoxic, full curve, poor fit] | Potency [16] 0.0372 µM [rising, full curve, poor fit]

Cc1cn([C@H]2C[C@H](N=[N+]=[N-])[C@@H](CO)O2)c(=O)[nH]c1=O
inconclusive: Potency [1] 29.6 µM [cytotoxic, single point] | Potency [2] 0.372 µM [rising, full curve, poor fit] | Potency [19] 0.0012 µM [rising, full curve, poor fit] | Potency [7] 0.0026 µM [rising, full curve, poor fit] | Potency [8] 11.8 µM [cytotoxic, single point] | Potency [10] 8.33 µM [cytotoxic, partial curve, poor fit] | Potency [17] 18.7 µM [cytotoxic, partial curve, poor fit]
inactive: Potency [3] | Potency [9]

Cc1csc(-c2nnc(Nc3ccc(Oc4ncccc4-c4ccnc(N)n4)cc3)c3ccccc23)c1
active: Potency [4] 5.26 µM | Potency [6] 20.9 µM
inconclusive: viability (% of DMSO) [1] 65% [cytotoxic] | Potency [19] 0.0026 µM [rising, full curve, poor fit] | Potency [3] 9.35 µM [cytotoxic, partial curve, poor fit] | Potency [12] 37.2 µM [cytotoxic, single point] | Potency [7] 16.6 µM [cytotoxic, partial curve, poor fit] | Potency [9] 16.6 µM [cytotoxic, partial curve, poor fit] | Potency [14] 0.0033 µM [cytotoxic, full curve, poor fit] | Potency [10] 0.0296 µM [cytotoxic, full curve, poor fit] | Potency [18] 18.7 µM [cytotoxic, partial curve, poor fit] | Potency [17] 10.5 µM [cytotoxic, partial curve]

C[C@]12CCC(=O)C=C1[C@@H]1CC1[C@H]1[C@H]3[C@@H]4C[C@H]4[C@@]4(CCC(=O)O4)[C@@]3(C)CC[C@H]12 (stereo partly drawn)
inconclusive: Potency [19] 0.118 µM [rising, full curve] | viability, percent of control [9] 72.3% [cytotoxic] | Potency [14] 11.8 µM [cytotoxic, full curve, poor fit] | Potency [10] 18.7 µM [cytotoxic, partial curve, poor fit] | Potency [18] 0.0296 µM [rising, full curve, poor fit] | Potency [17] 23.5 µM [cytotoxic, single point] | viability [11] 114% [cytotoxic]
inactive: Potency [1] | Potency [3] | Potency [12] | Potency [13] | Potency [5] | Potency [8]

CCc1cccc2c3c([nH]c12)C(CC)(CC(=O)O)OCC3 (stereo not drawn)
inactive: Potency [2] | Potency [12] | Potency [13] | Potency [7] | Potency [8] | Potency [15] | Potency [16]
inconclusive: Potency [1] 0.469 µM [cytotoxic, full curve, poor fit] | Potency [3] 0.0264 µM [cytotoxic, full curve, poor fit] | Potency [5] 1.32 µM [cytotoxic, partial curve, poor fit] | Potency [14] 1.66 µM [cytotoxic, full curve, poor fit] | Potency [10] 0.105 µM [cytotoxic, full curve, poor fit] | Potency [18] 9.35 µM [cytotoxic, full curve, poor fit]

CCCCCCCCCCCCCCCC(=O)O[C@H]1[C@@H](O)[C@@H](O)[C@@H]([C@H](NC(=O)[C@@H]2C[C@@H](CCC)CN2C)[C@H](C)Cl)O[C@@H]1SC
inactive: Potency [2] | Potency [7] | Potency [10] | Potency [11]
inconclusive: Potency [1] 9.35 µM [cytotoxic, full curve, poor fit] | Potency [3] 11.8 µM [cytotoxic, partial curve, poor fit] | Potency [6] 7.43 µM [rising, partial curve, poor fit] | Potency [8] 2.09 µM [cytotoxic, partial curve, poor fit] | Potency [9] 20.9 µM [cytotoxic, partial curve, poor fit] | Potency [14] 16.6 µM [cytotoxic, partial curve, poor fit] | Potency [15] 2.09 µM [cytotoxic, partial curve, poor fit] | Potency [18] 0.001 µM [cytotoxic] | Potency [17] 0.0264 µM [cytotoxic, full curve, poor fit]

COc1ccc2c(c1)c(CC(=O)OCC(=O)O)c(C)n2C(=O)c1ccc(Cl)cc1
inconclusive: Potency [1] 0.296 µM [cytotoxic, full curve, poor fit] | Potency [2] 0.0042 µM [cytotoxic, full curve, poor fit] | Potency [13] 0.001 µM [cytotoxic] | Potency [5] 0.296 µM [cytotoxic, partial curve, poor fit] | Potency [14] 37.2 µM [cytotoxic, single point] | Potency [10] 4.18 µM [cytotoxic, full curve, poor fit]
inactive: Potency [3] | Potency [12] | Potency [6] | Potency [8] | Potency [9] | viability [18] 138% | Potency [16]

Cc1c(CN2CCN(S(C)(=O)=O)CC2)sc2c(N3CCOCC3)nc(-c3cnc(N)nc3)nc12
active: Potency [1] 0.0372 µM | Potency [2] 0.187 µM | Potency [4] 0.0418 µM | Potency [5] 0.0264 µM | Potency [10] 0.0526 µM
inconclusive: Potency [3] 0.0526 µM [cytotoxic, full curve] | Potency [6] 0.0074 µM [cytotoxic, full curve] | Potency [8] 0.0083 µM [cytotoxic, full curve]

CC(C)OC(=O)OCOP(=O)(CO[C@H](C)Cn1cnc2c(N)ncnc21)OCOC(=O)OC(C)C
inconclusive: Potency [1] 0.0372 µM [cytotoxic, full curve, poor fit] | Potency [19] 33.2 µM [cytotoxic, single point] | Potency [3] 11.8 µM [cytotoxic, partial curve] | Potency [12] 18.7 µM [cytotoxic, partial curve] | Potency [4] 20.9 µM [cytotoxic, single point] | Potency [7] 13.2 µM [cytotoxic, partial curve, poor fit] | Potency [8] 23.5 µM [cytotoxic, partial curve, poor fit] | Potency [9] 16.6 µM [cytotoxic, partial curve, poor fit] | Potency [14] 8.33 µM [cytotoxic, partial curve, poor fit] | Potency [18] 16.6 µM [cytotoxic, partial curve, poor fit] | Potency [17] 14.8 µM [cytotoxic, partial curve] | Potency [11] 10.5 µM [cytotoxic, partial curve]
inactive: Potency [6]
active: Potency [13] 23.5 µM | Potency [10] 3.72 µM

O=C(NC[C@H](O)CO)c1ccncc1Nc1ccc(I)cc1F
active: Potency [1] 0.0526 µM | Potency [12] 8.33 µM | Potency [4] 0.0935 µM | Potency [14] 0.209 µM | Potency [11] 14.8 µM
inactive: Potency [19]
inconclusive: Potency [2] 93.5 µM [cytotoxic, partial curve, poor fit] | Potency [7] 2.96 µM [cytotoxic, full curve, poor fit] | Potency [10] 0.0033 µM [cytotoxic, full curve, poor fit]
